At least one structure is not confirmed: it was looked up by name or label, or the drawing left a doubt.
System: CT26 tumor cells
Experiment: CT26 dual tumor model (mouse colon cancer model)
Type: in vivo
Conditions: all the lower doses (below 10 mg/kg), I.T. single dose
Method: For study A, treatment was started 5 days (1.25 mg/kg, 2.5 mg/kg and 5 mg/kg) after the tumor implantation, when the average tumors reached approximately 100 mm^3. For study B, treatment was started 8 days (0.6 mg/kg, and 10 mg/kg) after the tumor implantation, when the average tumors reached approximately 120 mm^3. The treatment scheme is described in Table 5 and Table 6.
All the mice in the study have two subcutaneous CT26 tumors. The “treated tumor” indicates the tumor with compound direct administration, while “untreated tumor” indicates the tumor without direct compound administration. Tumor volume was followed throughout the experiment. Tumor volume is measured two times weekly after the start of treatment. Tumor burden is calculated from caliper measurements by the formula for the volume of a prolate ellipsoid (L×W^2)/2 where L and W are the respective orthogonal length and width measurements (mm).

O=[P@]1(S)OC[C@H]2O[C@@H]3[C@H](F)[C@@H]2O[P@](=O)(S)OC[C@H]2O[C@H]([C@H](F)[C@@H]2O1)n1cnc2c(ncnc21)NC/C=C/CNc1ncnc2c1ncn23 [Compound (1a), (1R,3R,15E,28R,29R,30R,31R,34R,36R,39S,41R)-29,41-Difluoro-34,39-bis(sulfanyl)-2,33,35,38,40,42-hexaoxa-4,6,9,11,13,18,20,22,25,27-decaaza-34λ^5,39λ^5-diphosphaoctacyclo[28.6.4.1^3,36.1^28,31.0^4,8.0^7,12.0^19,24.0^23,27]dotetraconta-5,7,9,11,15,19,21,23,25-nonaene-34,39-dione]
anti-tumor effect, untreated tumors: tumor growth inhibition activity

— US11691990B2, “Salts of compounds and crystals thereof” (Eisai R&D Management Co., Ltd., priority 2018, dated 2023)
